Measurements published in the supplement of paper PMC10849652.
This is one part of the list.

Chains of the proteins cited; added tags and fusions are not shown. Lines headed by an entry give the natural chain unless they say otherwise; changes in a name come on top.
UniProt Q8IVD9: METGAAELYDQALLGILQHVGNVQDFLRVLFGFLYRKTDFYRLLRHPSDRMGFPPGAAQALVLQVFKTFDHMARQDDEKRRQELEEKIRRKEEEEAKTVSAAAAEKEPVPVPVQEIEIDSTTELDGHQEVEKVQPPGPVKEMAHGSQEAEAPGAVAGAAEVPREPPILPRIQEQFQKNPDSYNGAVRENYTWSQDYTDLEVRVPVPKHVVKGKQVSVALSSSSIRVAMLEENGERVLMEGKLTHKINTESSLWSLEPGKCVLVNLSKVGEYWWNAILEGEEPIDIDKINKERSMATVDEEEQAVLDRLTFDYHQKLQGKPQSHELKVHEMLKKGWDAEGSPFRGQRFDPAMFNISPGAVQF
UniProt P46087: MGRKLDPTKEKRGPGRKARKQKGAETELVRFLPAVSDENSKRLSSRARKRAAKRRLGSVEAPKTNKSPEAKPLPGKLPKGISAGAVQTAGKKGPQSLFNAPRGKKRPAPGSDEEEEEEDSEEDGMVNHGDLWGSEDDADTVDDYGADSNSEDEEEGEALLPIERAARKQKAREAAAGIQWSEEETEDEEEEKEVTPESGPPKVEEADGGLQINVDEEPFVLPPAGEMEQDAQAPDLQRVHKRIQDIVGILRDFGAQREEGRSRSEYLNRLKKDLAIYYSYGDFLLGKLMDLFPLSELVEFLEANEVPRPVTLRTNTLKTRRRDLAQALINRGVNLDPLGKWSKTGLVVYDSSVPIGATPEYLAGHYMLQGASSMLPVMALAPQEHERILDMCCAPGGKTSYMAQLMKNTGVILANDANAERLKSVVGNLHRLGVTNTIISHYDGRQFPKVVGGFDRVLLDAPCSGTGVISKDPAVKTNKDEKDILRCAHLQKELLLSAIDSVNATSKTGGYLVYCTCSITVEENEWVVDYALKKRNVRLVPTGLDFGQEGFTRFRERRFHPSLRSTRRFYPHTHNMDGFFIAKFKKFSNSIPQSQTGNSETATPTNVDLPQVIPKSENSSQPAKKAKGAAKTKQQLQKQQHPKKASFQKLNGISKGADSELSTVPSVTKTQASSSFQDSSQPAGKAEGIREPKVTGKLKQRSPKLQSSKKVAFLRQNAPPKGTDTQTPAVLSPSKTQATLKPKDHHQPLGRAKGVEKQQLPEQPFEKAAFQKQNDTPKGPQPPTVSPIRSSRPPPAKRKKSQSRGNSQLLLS
UniProt Q9Y266: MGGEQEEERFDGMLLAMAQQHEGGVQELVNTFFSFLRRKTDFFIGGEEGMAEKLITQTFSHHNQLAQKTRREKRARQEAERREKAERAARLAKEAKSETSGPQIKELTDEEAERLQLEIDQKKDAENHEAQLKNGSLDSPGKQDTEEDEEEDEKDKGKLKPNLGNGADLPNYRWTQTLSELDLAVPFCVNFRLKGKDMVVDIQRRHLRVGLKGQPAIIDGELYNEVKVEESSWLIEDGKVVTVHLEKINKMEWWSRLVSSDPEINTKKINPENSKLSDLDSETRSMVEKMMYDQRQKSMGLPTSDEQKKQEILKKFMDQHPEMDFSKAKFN
UniProt Q14980: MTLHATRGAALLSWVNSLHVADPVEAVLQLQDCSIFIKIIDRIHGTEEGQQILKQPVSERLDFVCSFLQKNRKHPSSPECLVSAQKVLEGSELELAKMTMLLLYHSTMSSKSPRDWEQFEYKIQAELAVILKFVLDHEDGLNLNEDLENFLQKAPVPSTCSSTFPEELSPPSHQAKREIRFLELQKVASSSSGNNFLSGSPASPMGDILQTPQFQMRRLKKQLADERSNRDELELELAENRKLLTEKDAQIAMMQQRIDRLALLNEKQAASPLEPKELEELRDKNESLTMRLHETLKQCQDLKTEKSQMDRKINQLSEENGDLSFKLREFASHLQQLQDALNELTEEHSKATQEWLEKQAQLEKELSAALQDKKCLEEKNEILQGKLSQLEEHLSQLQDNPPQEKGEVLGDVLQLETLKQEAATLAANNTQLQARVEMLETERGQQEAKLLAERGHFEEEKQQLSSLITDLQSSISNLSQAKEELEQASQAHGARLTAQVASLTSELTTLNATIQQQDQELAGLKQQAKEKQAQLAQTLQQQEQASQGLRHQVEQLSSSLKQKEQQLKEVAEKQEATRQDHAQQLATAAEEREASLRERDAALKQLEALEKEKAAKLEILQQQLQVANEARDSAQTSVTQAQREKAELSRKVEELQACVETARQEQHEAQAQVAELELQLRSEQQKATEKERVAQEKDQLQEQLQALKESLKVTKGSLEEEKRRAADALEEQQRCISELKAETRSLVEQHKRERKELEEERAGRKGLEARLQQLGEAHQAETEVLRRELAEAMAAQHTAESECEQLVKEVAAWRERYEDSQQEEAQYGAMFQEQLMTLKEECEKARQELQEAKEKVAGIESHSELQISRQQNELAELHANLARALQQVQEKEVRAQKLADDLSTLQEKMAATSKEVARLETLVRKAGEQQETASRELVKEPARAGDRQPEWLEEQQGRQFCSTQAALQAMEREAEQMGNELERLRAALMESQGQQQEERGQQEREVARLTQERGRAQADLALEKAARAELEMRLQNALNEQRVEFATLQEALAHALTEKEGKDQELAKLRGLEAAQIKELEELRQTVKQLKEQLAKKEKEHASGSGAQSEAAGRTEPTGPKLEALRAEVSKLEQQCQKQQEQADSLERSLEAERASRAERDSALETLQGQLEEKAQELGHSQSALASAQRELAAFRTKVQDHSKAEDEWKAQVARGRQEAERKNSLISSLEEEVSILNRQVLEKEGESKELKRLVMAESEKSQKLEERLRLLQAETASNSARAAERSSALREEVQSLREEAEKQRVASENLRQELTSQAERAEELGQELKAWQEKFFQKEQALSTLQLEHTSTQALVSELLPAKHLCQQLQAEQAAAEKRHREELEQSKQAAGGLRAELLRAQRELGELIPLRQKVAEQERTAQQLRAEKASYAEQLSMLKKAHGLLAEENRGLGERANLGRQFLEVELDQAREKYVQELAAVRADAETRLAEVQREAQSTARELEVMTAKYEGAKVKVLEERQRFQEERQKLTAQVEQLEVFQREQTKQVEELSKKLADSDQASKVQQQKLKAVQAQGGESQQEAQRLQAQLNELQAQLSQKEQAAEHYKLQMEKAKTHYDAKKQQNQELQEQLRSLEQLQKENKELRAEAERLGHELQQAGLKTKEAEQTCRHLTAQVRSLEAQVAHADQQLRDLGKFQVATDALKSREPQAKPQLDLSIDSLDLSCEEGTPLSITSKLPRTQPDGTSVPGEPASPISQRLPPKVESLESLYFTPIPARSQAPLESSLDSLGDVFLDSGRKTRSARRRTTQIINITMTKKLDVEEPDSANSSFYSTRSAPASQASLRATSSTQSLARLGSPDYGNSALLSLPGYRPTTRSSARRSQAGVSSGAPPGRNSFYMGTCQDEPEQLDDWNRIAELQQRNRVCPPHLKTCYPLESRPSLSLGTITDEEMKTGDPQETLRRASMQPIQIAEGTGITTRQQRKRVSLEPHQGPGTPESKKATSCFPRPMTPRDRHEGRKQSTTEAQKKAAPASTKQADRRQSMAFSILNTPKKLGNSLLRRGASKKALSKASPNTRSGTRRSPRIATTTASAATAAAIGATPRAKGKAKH
UniProt Q9UNZ2: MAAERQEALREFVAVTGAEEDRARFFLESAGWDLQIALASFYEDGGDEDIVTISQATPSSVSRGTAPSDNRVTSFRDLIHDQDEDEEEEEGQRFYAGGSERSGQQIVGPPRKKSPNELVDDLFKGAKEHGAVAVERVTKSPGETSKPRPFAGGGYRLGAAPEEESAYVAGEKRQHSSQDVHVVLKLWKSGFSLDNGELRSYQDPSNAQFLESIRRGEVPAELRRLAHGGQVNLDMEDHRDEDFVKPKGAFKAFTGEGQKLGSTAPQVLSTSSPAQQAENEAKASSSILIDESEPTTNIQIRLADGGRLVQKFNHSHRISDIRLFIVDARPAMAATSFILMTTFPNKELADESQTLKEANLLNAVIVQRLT
UniProt Q9BSC4: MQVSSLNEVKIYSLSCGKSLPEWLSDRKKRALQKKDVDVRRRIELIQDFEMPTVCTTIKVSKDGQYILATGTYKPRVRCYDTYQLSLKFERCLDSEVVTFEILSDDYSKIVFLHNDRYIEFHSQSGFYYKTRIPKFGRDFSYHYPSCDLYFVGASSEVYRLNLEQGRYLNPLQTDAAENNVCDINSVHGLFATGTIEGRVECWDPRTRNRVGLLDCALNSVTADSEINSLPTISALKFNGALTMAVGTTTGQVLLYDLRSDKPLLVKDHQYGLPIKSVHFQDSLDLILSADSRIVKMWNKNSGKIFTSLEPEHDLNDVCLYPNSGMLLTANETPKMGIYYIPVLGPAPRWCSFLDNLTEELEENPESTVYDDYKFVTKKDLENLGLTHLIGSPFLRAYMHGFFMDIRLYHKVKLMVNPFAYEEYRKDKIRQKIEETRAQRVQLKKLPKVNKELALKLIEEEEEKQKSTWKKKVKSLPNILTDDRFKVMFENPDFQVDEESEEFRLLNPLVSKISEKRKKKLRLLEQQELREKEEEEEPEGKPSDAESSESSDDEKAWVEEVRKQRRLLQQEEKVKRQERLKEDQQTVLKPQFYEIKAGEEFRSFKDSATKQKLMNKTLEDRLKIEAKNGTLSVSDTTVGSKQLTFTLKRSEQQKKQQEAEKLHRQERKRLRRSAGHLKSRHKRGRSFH
UniProt Q96MG7: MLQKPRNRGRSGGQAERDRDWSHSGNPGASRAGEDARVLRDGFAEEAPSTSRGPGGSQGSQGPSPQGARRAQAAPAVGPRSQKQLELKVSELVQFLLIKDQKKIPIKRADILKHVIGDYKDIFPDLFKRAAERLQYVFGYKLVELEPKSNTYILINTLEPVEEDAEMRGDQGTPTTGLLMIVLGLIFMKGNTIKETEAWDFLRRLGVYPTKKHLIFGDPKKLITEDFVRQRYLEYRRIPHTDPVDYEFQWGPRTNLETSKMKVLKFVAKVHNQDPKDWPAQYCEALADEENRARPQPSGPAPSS
UniProt P61916: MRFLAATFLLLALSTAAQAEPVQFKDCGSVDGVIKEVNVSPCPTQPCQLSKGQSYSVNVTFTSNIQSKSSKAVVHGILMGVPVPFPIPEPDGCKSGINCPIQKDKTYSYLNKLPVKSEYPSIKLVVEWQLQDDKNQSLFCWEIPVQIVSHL
UniProt Q969T7: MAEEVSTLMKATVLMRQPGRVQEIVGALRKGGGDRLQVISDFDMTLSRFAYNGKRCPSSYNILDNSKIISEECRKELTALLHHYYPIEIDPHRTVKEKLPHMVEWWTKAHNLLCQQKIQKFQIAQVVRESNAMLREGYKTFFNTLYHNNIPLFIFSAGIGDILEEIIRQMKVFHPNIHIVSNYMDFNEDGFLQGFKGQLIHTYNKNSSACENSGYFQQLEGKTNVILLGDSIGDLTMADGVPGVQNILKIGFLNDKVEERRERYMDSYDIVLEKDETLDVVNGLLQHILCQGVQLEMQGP
UniProt Q02818: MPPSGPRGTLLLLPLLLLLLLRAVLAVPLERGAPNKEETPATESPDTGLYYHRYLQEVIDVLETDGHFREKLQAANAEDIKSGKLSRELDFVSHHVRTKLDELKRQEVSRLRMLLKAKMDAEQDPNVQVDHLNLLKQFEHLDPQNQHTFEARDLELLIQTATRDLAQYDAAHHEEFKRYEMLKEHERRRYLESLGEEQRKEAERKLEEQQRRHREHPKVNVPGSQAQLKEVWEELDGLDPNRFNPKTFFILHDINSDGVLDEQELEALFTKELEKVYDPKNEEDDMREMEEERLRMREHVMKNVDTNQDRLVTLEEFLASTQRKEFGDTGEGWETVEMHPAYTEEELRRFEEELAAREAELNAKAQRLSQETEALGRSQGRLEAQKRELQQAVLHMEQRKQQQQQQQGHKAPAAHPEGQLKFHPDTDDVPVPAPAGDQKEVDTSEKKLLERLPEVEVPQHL
UniProt Q9Y5A7: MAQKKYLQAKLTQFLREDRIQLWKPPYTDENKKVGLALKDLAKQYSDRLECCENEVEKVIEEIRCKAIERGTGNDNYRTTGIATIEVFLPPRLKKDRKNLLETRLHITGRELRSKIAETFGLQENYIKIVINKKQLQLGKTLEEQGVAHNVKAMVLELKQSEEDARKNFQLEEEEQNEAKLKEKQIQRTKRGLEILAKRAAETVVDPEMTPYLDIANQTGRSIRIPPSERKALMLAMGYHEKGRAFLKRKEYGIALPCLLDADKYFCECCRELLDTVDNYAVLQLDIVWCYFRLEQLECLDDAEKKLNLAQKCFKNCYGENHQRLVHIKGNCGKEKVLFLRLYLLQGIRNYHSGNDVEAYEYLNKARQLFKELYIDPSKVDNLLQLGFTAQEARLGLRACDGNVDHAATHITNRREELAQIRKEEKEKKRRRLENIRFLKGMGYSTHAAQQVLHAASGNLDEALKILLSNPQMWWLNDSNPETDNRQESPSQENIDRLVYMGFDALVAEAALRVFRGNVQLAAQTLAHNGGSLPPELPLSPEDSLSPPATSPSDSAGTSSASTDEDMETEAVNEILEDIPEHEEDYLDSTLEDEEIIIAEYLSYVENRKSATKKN

Assays:
Test in all cases: log2 fold change, soluble protein after heating vs DMSO (PISA); higher = thermal stabilisation; K562 lysate, 10 uM; active = over 0.2 and 3.5 SD of the protein, either way, in both replicates (recomputed)
[1] = compound: CCCS(=O)(=O)Nc1ccc(F)c(C(=O)c2c[nH]c3ncc(-c4ccc(Cl)cc4)cc23)c1F [vemurafenib]
How it was run: (§1)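 K562 pellets were dounce-homogenised in PBS pH 7.4 containing 1 mM MgCl2, and the crude extract, at 1 mg/mL protein, was exposed to 10 μM compound for 30 min. Aliquots were heated for 3 min across 48°C-58°C, pooled, brought to 0.5% NP-40 at 4°C and spun at 21,000xg for 90 min, with the supernatant taken as soluble protein. TMTpro 16plex LC-MS/MS with equalised channel sums quantified that protein. Values are log-two fold changes in thermal stability relative to solvent controls, taken from duplicates.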

[2] = compound: CCCS(=O)(=O)Nc1ccc(F)c(C(=O)c2c[nH]c3ncc(Cl)cc23)c1F
How it was run: as §1

[3] = compound: CCN(CCCOc1ccc2c(Nc3cc(CC(=O)Nc4cccc(F)c4)[nH]n3)ncnc2c1)CCOP(=O)(O)O [barasertib]
How it was run: as §1

[4] = compound: CC[C@@H]1C(=O)N(C)c2cnc(Nc3ccc(C(=O)NC4CCN(C)CC4)cc3OC)nc2N1C1CCCC1
How it was run: as §1

[5] = compound: CC[C@@H]1C(=O)N(C)c2cnc(Nc3ccc(C(=O)N[C@H]4CC[C@H](N5CCN(CC6CC6)CC5)CC4)cc3OC)nc2N1C(C)C [volasertib]
How it was run: as §1

[6] = compound: CCn1c(C(=O)N(C2CC2)C2CC2)cc2c3c(ncn3C)c(Nc3cc(C)n(C)n3)nc21
How it was run: as §1

[7] = compound: CCn1cc(-c2ccnc3[nH]c(-c4cccc(CN(C)C)c4)cc23)c(-c2ccc(NC(=O)N(C)C)cc2)n1
How it was run: as §1

[8] = compound: CN1CCC(CNc2ccc3ncc(-c4cccc(OC(F)(F)F)c4)n3n2)CC1
How it was run: as §1

[9] = compound: CN1CCN(CCOc2cc(OC3CCOCC3)c3c(Nc4c(Cl)ccc5c4OCO5)ncnc3c2)CC1 [saracatinib]
How it was run: as §1

[10] = compound: CN1CCN(c2nc(C3=C(c4c[nH]c5ccccc45)C(=O)NC3=O)c3ccccc3n2)CC1 [sotrastaurin]
How it was run: as §1

[11] = compound: CN1CC[C@H](c2c(O)cc(O)c3c(=O)cc(-c4ccccc4Cl)oc23)[C@H](O)C1 [alvocidib]
How it was run: as §1

[12] = compound: CN1CCc2c(c3ccccc3n2Cc2ccc(C(=O)NO)cc2)C1 [Tubastatin A]
How it was run: as §1

[13] = compound: CNC(=O)C1=CC=CC=C1NC2=NC(=NC=C2Cl)NC3=C(C=C(C=C3)N4CCOCC4)OC
How it was run: as §1

[14] = compound: CNC(=O)c1ccc(Nc2ncc(C(F)(F)F)c(NCc3nccnc3N(C)S(C)(=O)=O)n2)cc1 [defactinib]
How it was run: as §1

[15] = compound: CNc1nc(-c2ccc3c(N)n[nH]c3c2)cc(N2C[C@@H](C(=O)NC3CCCCC3)CC[C@H]2C)n1
How it was run: as §1

[16] = compound: COC(=O)N[C@@H](C)CNc1nccc(-c2cn(C(C)C)nc2-c2cc(Cl)cc(NS(C)(=O)=O)c2F)n1 [encorafenib]
How it was run: as §1

[17] = compound: COC(=O)[C@H](CCSC)NC(=O)C1=C(C=C(C=C1)NC[C@H](CS)N)C2=CC=CC=C2
How it was run: as §1

[18] = compound: COc1cc(Nc2ncc3c(n2)-c2ccc(Cl)cc2C(c2c(F)cccc2OC)=NC3)ccc1C(=O)O [alisertib]
How it was run: as §1

[19] = compound: COc1cc2nc(-c3cc(F)ccc3O)nc(N[C@@H]3CNC[C@H]3C(C)(C)O)c2cc1OC
How it was run: as §1

[20] = compound: COc1cc2ncnc(Nc3ccc(F)c(Cl)c3)c2cc1OCCCN1CCOCC1 [gefitinib]
How it was run: as §1

Measured: log2 fold change

NUDCD3 (UniProt Q8IVD9)
inactive: [1] -0.045 | [2] 0.003 | [3] -0.016 | [4] -0.027 | [5] 0.007 | [6] 0.001 | [7] 0.034 | [8] 0.017 | [9] -0.007 | [10] -0.01 | [11] -0.005 | [12] 0.013 | [13] 0.015 | [14] 0.007 | [15] 0.016 | [16] -0.005 | [17] 0.037 | [18] -0.021 | [19] -0.001 | [20] 0.007

NOP2 isoform 4 (UniProt P46087)
inactive: [1] 0.046 | [2] 0.013 | [3] 0.007 | [4] 0.001 | [5] -0.005 | [6] 0.016 | [7] -0.036 | [8] 0.024 | [9] 0.01 | [10] -0.009 | [11] 0.021 | [12] 0.001 | [13] -0.001 | [14] -0.01 | [15] 0.069 | [16] 0.074 | [17] -0.02 | [18] 0.004 | [19] -0.017 | [20] -0.021

NUDC (UniProt Q9Y266)
inactive: [1] -0.008 | [2] -0.014 | [3] -0.025 | [4] 0.015 | [5] 0.01 | [6] -0.005 | [7] 0.093 | [8] -0.029 | [9] 0.015 | [10] 0.011 | [11] 0.015 | [12] 0.05 | [13] -0.027 | [14] -0.027 | [15] -0.014 | [16] -0.004 | [17] 0.003 | [18] 0.025 | [19] 0 | [20] 0.013

NUP153 (UniProt P49790)
inactive: [1] 0.011 | [2] 0.007 | [3] 0.004 | [4] 0.066 | [5] -0.006 | [6] -0.005 | [7] 0.016 | [8] 0.009 | [9] 0.021 | [10] -0.015 | [11] -0.029 | [12] 0.027 | [13] 0.018 | [14] 0 | [15] 0.021 | [16] 0.039 | [17] -0.084 | [18] -0.03 | [19] 0.033 | [20] -0.004

NUMA1 (UniProt Q14980)
inactive: [1] -0.013 | [2] 0.019 | [3] 0.015 | [4] -0.001 | [5] -0.01 | [6] 0.041 | [7] 0.009 | [8] -0.014 | [9] 0.007 | [10] -0.01 | [11] -0.004 | [12] -0.037 | [13] 0.032 | [14] -0.017 | [15] 0.02 | [16] 0.038 | [17] 0.022 | [18] 0.03 | [19] 0.003 | [20] -0.014

NSFL1C isoform 5 (UniProt Q9UNZ2)
inactive: [1] -0.025 | [2] 0.006 | [3] -0.041 | [4] 0.023 | [5] 0.016 | [6] -0.002 | [7] -0.031 | [8] 0.025 | [9] 0.002 | [10] 0.019 | [11] 0.043 | [12] 0.035 | [13] 0.017 | [14] 0.004 | [15] -0.011 | [16] 0.01 | [17] -0.034 | [18] 0.011 | [19] -0.007 | [20] 0.009

NOP56 (UniProt O00567)
inactive: [1] -0.068 | [2] 0.032 | [3] 0.003 | [4] -0.018 | [5] -0.019 | [6] 0.011 | [7] 0.007 | [8] -0.032 | [9] 0.001 | [10] 0.011 | [11] 0.014 | [12] 0.012 | [13] -0.011 | [14] 0.029 | [15] 0.086 | [16] 0 | [17] 0.06 | [18] 0.007 | [19] -0.009 | [20] 0.008

NUDT1 (UniProt P36639)
inactive: [1] 0.013 | [2] 0.024 | [3] -0.002 | [4] 0.12 | [5] 0.079 | [6] -0.012 | [7] -0.038 | [8] 0.039 | [9] 0.028 | [10] 0.028 | [11] -0.014 | [12] -0.025 | [13] -0.05 | [14] -0.028 | [15] 0.009 | [16] -0.03 | [17] -0.038 | [18] 0 | [19] -0.035 | [20] 0.01

NOL10 (UniProt Q9BSC4)
inactive: [1] -0.026 | [2] -0.016 | [3] -0.039 | [4] -0.398 | [5] -0.043 | [6] 0.084 | [7] 0.012 | [8] -0.042 | [9] 0.094 | [10] 0.112 | [11] -0.009 | [12] -0.213 | [13] 0.097 | [14] 0.164 | [15] 0.051 | [16] -0.192 | [17] 0.021 | [18] 0.124 | [19] 0.017 | [20] 0.049

NUDCD1 (UniProt Q96RS6)
inactive: [1] 0.007 | [2] 0.002 | [3] -0.002 | [4] -0.014 | [5] -0.005 | [6] -0.002 | [7] -0.065 | [8] 0.03 | [9] -0.003 | [10] -0.003 | [11] -0.02 | [12] -0.001 | [13] -0.005 | [14] -0.043 | [15] -0.01 | [16] -0.007 | [17] 0.023 | [18] 0.003 | [19] 0.005 | [20] -0.033

2 consecutive records from above, quoted:
NOL10 (UniProt Q9BSC4)
inactive: [1] -0.026 | [2] -0.016 | [3] -0.039 | [4] -0.398 | [5] -0.043 | [6] 0.084 | [7] 0.012 | [8] -0.042 | [9] 0.094 | [10] 0.112 | [11] -0.009 | [12] -0.213 | [13] 0.097 | [14] 0.164 | [15] 0.051 | [16] -0.192 | [17] 0.021 | [18] 0.124 | [19] 0.017 | [20] 0.049

NUDCD1 (UniProt Q96RS6)
inactive: [1] 0.007 | [2] 0.002 | [3] -0.002 | [4] -0.014 | [5] -0.005 | [6] -0.002 | [7] -0.065 | [8] 0.03 | [9] -0.003 | [10] -0.003 | [11] -0.02 | [12] -0.001 | [13] -0.005 | [14] -0.043 | [15] -0.01 | [16] -0.007 | [17] 0.023 | [18] 0.003 | [19] 0.005 | [20] -0.033

The listing continues:

NSMCE3 (UniProt Q96MG7)
inactive: [1] -0.004 | [2] 0.024 | [3] 0.01 | [4] 0.02 | [5] -0.045 | [6] -0.02 | [7] 0.012 | [8] -0.022 | [9] -0.024 | [10] -0.065 | [11] -0.014 | [12] -0.029 | [13] 0.03 | [14] -0.013 | [15] -0.048 | [16] 0.034 | [17] 0.052 | [18] -0.016 | [19] -0.057 | [20] 0.067

NPC2 (UniProt P61916)
inactive: [1] -0.169 | [2] 0.002 | [3] 0.053 | [4] 0.124 | [5] 0.076 | [6] 0.051 | [7] -0.166 | [8] 0.078 | [9] -0.079 | [10] -0.023 | [11] -0.082 | [12] -0.019 | [13] 0.009 | [14] 0.182 | [15] -0.119 | [16] 0.047 | [17] -0.146 | [18] 0.069 | [19] 0 | [20] 0.031

NT5C3B (UniProt Q969T7)
inactive: [1] -0.002 | [2] -0.001 | [3] -0.087 | [4] 0.052 | [5] -0.083 | [6] 0.021 | [7] 0.014 | [8] 0.069 | [9] 0.058 | [10] 0.015 | [11] 0 | [12] -0.051 | [13] 0.008 | [14] -0.056 | [15] -0.049 | [16] 0.044 | [17] -0.127 | [18] -0.099 | [19] -0.011 | [20] 0.062

NUCB1 (UniProt Q02818)
inactive: [1] 0.028 | [2] 0.016 | [3] 0.025 | [4] 0.009 | [5] 0.018 | [6] 0.026 | [7] 0.01 | [8] -0.019 | [9] 0.018 | [10] 0.008 | [11] 0.009 | [12] 0.057 | [13] -0.007 | [14] -0.047 | [15] -0.019 | [16] -0.026 | [17] 0.011 | [18] 0.01 | [19] 0.008 | [20] 0.021

NUB1 (UniProt Q9Y5A7)
inactive: [1] -0.007 | [2] 0.011 | [3] 0.028 | [4] -0.052 | [5] -0.056 | [6] 0 | [7] 0.008 | [8] -0.048 | [9] -0.009 | [10] 0.021 | [11] 0.033 | [12] -0.095 | [13] 0.037 | [14] -0.007 | [15] 0.014 | [16] 0.022 | [17] 0.038 | [18] -0.012 | [19] -0.004 | [20] -0.049

NSRP1 (UniProt Q9H0G5)
inactive: [1] -0.024 | [2] -0.007 | [3] 0.007 | [4] 0.078 | [5] 0.01 | [6] -0.023 | [7] 0.096 | [8] -0.042 | [9] 0.059 | [10] 0.038 | [11] 0 | [12] -0.007 | [13] 0.038 | [14] 0.003 | [15] 0.014 | [16] 0.022 | [17] -0.013 | [18] -0.021 | [19] -0.007 | [20] -0.033
